The exact form of at least one protein or probe is not confirmed. The comparison behind a weaker result is the experiment's own reference, which may not be listed here.
Molecular target: Sam68 QUA1-KH (UniProt Q07666)
Assay: EMSA
Settings: 40 uM RNA, 10-200 uM protein, weaker than unmodified RNA; 2'-OCF3 at A20; recombinant protein; residues 96-260; protein details: N-terminal His6-TEV (pLEICS-01), TEV-treated; label: 19F (2'-OCF3 at A20)

The chains behind the UniProt entries cited, without tags or fusion partners. Residues count along the entry.
UniProt Q07666, 96-260: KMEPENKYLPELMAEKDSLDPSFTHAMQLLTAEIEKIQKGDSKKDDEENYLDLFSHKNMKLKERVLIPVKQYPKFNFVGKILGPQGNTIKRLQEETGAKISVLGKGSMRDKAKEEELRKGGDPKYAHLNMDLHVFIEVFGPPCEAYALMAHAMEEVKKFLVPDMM

UUACAGGGUUUUAGACAAAAU [RNA3 (2'-OCF3-A20)]
binding result: binds more weakly

Source: PMC10899400
